Reference: the supplement of paper PMC10849652
The other results are listed elsewhere or left out.

By UniProt entry, the sequences of proteins in these tests, tags left out. Where a name states a change or a piece, a line headed by the entry shows the natural chain unless it says otherwise.
UniProt Q9H3K2: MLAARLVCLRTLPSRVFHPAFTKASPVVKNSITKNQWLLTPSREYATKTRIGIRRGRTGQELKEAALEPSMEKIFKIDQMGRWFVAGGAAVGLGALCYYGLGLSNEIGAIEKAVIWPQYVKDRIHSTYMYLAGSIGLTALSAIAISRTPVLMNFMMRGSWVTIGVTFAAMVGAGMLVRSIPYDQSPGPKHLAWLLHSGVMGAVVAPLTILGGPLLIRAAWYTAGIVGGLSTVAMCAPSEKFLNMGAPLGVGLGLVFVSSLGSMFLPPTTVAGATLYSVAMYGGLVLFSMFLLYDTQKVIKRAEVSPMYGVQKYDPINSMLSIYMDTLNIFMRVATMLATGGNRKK
UniProt P49448: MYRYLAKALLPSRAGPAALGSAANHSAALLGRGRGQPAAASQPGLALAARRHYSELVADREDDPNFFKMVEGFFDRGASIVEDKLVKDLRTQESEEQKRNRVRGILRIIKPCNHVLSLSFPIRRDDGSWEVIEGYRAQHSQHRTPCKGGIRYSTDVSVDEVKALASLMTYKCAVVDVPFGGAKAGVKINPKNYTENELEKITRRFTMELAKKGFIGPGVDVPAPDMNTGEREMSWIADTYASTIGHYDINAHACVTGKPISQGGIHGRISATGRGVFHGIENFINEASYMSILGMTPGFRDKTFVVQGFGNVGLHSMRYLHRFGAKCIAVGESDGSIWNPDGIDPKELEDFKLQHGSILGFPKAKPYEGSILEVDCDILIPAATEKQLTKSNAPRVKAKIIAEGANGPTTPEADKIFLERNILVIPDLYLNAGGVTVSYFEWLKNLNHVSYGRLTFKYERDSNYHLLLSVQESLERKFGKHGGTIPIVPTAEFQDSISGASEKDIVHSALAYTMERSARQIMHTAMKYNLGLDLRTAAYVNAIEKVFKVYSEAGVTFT
UniProt Q9BRR8: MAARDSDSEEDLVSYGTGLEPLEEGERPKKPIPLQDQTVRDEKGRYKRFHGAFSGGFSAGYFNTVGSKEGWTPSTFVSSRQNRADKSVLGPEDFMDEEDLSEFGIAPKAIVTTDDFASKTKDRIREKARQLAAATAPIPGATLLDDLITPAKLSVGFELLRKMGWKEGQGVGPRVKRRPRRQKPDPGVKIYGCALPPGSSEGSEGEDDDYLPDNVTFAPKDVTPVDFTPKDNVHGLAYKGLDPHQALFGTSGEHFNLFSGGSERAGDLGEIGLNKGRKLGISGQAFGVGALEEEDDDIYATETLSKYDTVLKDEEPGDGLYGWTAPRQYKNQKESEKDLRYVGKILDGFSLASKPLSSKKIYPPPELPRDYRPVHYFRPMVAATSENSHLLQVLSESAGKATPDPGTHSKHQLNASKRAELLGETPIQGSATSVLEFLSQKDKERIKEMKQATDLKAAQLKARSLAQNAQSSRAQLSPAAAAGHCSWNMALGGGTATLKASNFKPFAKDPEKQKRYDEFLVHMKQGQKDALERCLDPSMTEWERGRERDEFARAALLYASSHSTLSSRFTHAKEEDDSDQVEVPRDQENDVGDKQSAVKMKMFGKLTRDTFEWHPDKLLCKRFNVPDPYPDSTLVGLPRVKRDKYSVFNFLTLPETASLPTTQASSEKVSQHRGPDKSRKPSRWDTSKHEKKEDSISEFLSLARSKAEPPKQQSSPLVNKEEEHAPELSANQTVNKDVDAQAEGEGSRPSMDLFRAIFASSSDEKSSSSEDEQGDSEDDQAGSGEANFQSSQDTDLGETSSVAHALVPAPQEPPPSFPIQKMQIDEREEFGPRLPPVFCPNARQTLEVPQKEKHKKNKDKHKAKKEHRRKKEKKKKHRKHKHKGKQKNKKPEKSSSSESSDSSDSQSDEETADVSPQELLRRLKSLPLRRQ
UniProt Q92917: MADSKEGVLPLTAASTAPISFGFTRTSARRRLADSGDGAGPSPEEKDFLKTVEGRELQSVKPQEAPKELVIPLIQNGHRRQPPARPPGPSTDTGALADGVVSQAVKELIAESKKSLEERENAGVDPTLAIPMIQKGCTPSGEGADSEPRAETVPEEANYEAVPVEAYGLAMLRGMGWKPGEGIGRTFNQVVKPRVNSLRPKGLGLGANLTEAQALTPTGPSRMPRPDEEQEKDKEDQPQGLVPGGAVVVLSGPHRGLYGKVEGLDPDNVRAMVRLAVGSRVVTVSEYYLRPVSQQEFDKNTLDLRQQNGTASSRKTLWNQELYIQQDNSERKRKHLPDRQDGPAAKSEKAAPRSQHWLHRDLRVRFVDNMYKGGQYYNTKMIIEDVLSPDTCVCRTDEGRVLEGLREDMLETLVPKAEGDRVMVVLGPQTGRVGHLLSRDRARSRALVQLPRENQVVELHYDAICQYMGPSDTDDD
UniProt O76003: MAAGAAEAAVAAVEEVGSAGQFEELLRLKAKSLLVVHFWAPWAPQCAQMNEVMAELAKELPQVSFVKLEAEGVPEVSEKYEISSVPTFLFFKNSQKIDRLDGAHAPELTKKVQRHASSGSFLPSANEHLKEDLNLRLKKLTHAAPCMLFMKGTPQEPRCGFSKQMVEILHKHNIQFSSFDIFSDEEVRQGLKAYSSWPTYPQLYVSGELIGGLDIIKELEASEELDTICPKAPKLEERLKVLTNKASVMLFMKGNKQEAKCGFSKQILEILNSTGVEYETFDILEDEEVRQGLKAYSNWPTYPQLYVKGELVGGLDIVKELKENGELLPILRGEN
UniProt Q9Y223: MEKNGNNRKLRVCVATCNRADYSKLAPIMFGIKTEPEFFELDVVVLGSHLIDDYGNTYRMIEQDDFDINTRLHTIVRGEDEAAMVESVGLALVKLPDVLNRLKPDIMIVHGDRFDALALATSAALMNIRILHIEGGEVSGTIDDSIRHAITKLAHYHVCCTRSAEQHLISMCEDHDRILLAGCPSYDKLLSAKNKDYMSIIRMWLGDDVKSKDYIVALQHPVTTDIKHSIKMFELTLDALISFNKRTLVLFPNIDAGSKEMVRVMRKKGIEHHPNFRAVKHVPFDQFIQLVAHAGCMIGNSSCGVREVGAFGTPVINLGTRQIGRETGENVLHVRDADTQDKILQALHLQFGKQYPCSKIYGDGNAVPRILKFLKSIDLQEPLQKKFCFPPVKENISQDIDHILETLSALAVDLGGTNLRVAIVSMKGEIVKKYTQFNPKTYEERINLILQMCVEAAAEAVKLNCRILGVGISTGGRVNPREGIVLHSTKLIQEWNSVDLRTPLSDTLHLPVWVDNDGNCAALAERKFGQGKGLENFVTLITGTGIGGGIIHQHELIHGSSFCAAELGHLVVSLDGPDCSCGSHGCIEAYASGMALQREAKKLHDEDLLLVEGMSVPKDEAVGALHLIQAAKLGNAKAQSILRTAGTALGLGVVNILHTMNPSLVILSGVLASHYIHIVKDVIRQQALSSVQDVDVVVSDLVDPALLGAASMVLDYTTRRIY
UniProt Q9P2T1: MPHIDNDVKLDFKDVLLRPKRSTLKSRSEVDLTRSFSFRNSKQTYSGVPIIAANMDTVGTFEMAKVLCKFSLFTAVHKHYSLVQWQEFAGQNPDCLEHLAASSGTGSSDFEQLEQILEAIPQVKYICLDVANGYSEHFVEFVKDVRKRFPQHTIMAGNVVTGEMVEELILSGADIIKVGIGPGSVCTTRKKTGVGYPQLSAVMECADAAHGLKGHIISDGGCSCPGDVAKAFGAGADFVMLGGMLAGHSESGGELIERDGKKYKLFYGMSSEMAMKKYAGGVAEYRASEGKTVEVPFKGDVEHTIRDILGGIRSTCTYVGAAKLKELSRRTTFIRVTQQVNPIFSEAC
UniProt Q9UJ14: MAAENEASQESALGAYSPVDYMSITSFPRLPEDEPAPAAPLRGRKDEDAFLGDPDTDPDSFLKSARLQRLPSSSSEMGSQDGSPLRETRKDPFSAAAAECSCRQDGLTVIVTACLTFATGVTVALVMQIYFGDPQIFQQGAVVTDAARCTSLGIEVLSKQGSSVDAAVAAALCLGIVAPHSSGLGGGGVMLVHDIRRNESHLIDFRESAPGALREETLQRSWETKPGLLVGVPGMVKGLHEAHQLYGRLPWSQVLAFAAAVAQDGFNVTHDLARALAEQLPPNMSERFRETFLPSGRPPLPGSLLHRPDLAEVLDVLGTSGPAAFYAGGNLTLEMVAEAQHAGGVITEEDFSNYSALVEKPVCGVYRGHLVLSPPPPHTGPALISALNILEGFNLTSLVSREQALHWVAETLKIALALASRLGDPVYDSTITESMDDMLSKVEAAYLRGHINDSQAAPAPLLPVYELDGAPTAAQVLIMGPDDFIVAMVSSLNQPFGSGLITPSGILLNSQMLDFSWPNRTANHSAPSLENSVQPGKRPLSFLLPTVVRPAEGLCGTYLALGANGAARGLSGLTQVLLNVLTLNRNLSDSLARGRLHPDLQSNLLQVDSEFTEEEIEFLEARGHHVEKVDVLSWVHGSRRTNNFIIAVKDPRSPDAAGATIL
UniProt P43304: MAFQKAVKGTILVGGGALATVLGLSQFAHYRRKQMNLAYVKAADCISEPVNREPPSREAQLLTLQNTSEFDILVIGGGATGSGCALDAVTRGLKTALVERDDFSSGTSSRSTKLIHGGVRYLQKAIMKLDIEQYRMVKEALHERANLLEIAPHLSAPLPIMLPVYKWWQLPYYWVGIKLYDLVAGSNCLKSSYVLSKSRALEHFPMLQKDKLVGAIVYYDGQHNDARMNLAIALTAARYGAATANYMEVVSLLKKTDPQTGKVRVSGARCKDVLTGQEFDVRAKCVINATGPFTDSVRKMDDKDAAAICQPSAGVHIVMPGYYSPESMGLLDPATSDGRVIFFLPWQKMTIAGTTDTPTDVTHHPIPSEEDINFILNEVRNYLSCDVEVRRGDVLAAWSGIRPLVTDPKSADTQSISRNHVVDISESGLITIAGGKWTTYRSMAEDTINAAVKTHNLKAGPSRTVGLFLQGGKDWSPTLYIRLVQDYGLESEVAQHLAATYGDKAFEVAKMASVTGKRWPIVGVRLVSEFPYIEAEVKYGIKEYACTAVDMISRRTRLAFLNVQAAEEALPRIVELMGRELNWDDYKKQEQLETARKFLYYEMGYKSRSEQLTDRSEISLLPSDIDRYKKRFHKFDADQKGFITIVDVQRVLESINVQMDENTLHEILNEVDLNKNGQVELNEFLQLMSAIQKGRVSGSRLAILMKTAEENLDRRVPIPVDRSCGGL
UniProt Q04760: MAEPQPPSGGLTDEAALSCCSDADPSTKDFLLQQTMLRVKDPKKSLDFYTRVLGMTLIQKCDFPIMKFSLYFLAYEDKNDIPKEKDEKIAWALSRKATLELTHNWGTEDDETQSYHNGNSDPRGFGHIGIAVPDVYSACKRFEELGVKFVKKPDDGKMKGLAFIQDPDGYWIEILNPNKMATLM
UniProt Q9Y248: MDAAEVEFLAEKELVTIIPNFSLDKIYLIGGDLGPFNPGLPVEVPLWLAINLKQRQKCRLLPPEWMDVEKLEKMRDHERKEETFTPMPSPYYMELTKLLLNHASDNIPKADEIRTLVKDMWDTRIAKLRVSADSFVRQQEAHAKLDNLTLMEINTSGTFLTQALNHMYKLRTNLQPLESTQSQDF
UniProt Q8WWB7: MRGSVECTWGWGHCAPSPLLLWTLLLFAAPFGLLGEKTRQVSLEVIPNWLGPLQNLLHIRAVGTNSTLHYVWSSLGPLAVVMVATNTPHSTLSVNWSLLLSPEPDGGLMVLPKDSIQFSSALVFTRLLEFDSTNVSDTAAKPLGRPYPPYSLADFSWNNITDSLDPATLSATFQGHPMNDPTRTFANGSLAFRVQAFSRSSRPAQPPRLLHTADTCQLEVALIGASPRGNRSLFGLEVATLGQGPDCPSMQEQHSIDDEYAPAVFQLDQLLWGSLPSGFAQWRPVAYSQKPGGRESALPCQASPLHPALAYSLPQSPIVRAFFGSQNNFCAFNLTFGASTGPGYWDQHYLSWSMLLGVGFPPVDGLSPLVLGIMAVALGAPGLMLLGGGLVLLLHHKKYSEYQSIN
UniProt Q9HAV0, whole entry, looked up: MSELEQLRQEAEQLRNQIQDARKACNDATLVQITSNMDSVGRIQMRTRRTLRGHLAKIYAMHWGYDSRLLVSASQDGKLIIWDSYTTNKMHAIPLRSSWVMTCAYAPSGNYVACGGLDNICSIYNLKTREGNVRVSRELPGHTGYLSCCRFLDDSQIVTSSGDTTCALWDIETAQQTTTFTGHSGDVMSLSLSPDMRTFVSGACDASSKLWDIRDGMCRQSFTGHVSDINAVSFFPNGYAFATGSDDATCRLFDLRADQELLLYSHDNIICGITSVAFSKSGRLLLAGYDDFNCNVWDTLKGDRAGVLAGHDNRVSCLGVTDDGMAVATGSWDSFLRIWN

Assays:
Test in all cases: log2 fold change, soluble protein after heating vs DMSO (PISA); higher = thermal stabilisation; K562 lysate, 10 uM; active = over 0.2 and 3.5 SD of the protein, either way, in both replicates (recomputed)
alvocidib = compound: CN1CC[C@H](c2c(O)cc(O)c3c(=O)cc(-c4ccccc4Cl)oc23)[C@H](O)C1 [alvocidib]
Procedure, shortened: (§1)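 K562 pellets were dounce-homogenised in PBS pH 7.4 containing 1 mM MgCl2, and the crude extract, at 1 mg/mL protein, was exposed to 10 μM compound for 30 min. Aliquots were heated for 3 min across 48°C-58°C, pooled, brought to 0.5% NP-40 at 4°C and spun at 21,000xg for 90 min, with the supernatant taken as soluble protein. TMTpro 16plex LC-MS/MS with equalised channel sums quantified that protein. Values are log-two fold changes in thermal stability relative to solvent controls, taken from duplicates.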

Tubastatin A = compound: CN1CCc2c(c3ccccc3n2Cc2ccc(C(=O)NO)cc2)C1 [Tubastatin A]
Procedure, shortened: as §1

[1] = compound: CNC(=O)C1=CC=CC=C1NC2=NC(=NC=C2Cl)NC3=C(C=C(C=C3)N4CCOCC4)OC
Procedure, shortened: as §1

defactinib = compound: CNC(=O)c1ccc(Nc2ncc(C(F)(F)F)c(NCc3nccnc3N(C)S(C)(=O)=O)n2)cc1 [defactinib]
Procedure, shortened: as §1

[2] = compound: CNc1nc(-c2ccc3c(N)n[nH]c3c2)cc(N2C[C@@H](C(=O)NC3CCCCC3)CC[C@H]2C)n1
Procedure, shortened: as §1

encorafenib = compound: COC(=O)N[C@@H](C)CNc1nccc(-c2cn(C(C)C)nc2-c2cc(Cl)cc(NS(C)(=O)=O)c2F)n1 [encorafenib]
Procedure, shortened: as §1

[3] = compound: COC(=O)[C@H](CCSC)NC(=O)C1=C(C=C(C=C1)NC[C@H](CS)N)C2=CC=CC=C2
Procedure, shortened: as §1

alisertib = compound: COc1cc(Nc2ncc3c(n2)-c2ccc(Cl)cc2C(c2c(F)cccc2OC)=NC3)ccc1C(=O)O [alisertib]
Procedure, shortened: as §1

[4] = compound: COc1cc2nc(-c3cc(F)ccc3O)nc(N[C@@H]3CNC[C@H]3C(C)(C)O)c2cc1OC
Procedure, shortened: as §1

gefitinib = compound: COc1cc2ncnc(Nc3ccc(F)c(Cl)c3)c2cc1OCCCN1CCOCC1 [gefitinib]
Procedure, shortened: as §1

Measured: log2 fold change

GOPC (UniProt Q9HD26)
inactive: alvocidib 0.003 | Tubastatin A -0.125 | [1] 0.06 | defactinib 0.026 | [2] -0.009 | encorafenib 0.008 | [3] 0.073 | alisertib 0 | [4] -0.025 | gefitinib 0.01

GHITM (UniProt Q9H3K2)
inactive: alvocidib -0.005 | Tubastatin A 0.018 | [1] 0.013 | defactinib 0.016 | [2] 0.041 | encorafenib 0 | [3] -0.05 | alisertib 0.001 | [4] -0.006 | gefitinib -0.003

GLUD2 (UniProt P49448)
inactive: alvocidib -0.029 | Tubastatin A 0.12 | [1] 0.053 | defactinib 0.061 | [2] 0.02 | encorafenib 0.066 | [3] 0.115 | alisertib -0.06 | [4] -0.021 | gefitinib 0.036

GPATCH1 (UniProt Q9BRR8)
inactive: alvocidib 0.071 | Tubastatin A -0.065 | [1] 0.014 | defactinib -0.06 | [2] 0.182 | encorafenib 0.04 | [3] 0.016 | alisertib -0.349 | [4] -0.014 | gefitinib -0.141

GPKOW (UniProt Q92917)
inactive: alvocidib 0.008 | Tubastatin A -0.078 | [1] 0.006 | defactinib 0 | [2] -0.016 | encorafenib 0.02 | [3] -0.083 | alisertib 0.031 | [4] 0.011 | gefitinib 0

GLRX3 (UniProt O76003)
inactive: alvocidib 0.013 | Tubastatin A -0.011 | [1] 0.01 | defactinib -0.039 | [2] 0.032 | encorafenib -0.029 | [3] -0.038 | alisertib 0.016 | [4] 0.01 | gefitinib -0.009

GNE isoform 2 (UniProt Q9Y223)
inactive: alvocidib 0.028 | Tubastatin A -0.12 | [1] 0.016 | defactinib -0.011 | [2] -0.024 | encorafenib -0.008 | [3] 0.176 | alisertib 0.041 | [4] 0.026 | gefitinib -0.014

GMPR2 isoform 2 (UniProt Q9P2T1)
inactive: alvocidib -0.003 | Tubastatin A 0.018 | [1] 0.023 | defactinib -0.017 | [2] -0.006 | encorafenib -0.002 | [3] -0.042 | alisertib 0.012 | [4] 0.008 | gefitinib 0.001

GGT7 (UniProt Q9UJ14)
inactive: alvocidib -0.013 | Tubastatin A 0.076 | [1] 0.008 | defactinib 0.066 | [2] 0.079 | encorafenib 0.078 | [3] -0.065 | alisertib -0.015 | [4] 0.044 | gefitinib 0.055

GPD2 (UniProt P43304)
inactive: alvocidib -0.013 | Tubastatin A 0.013 | [1] 0.024 | defactinib 0.04 | [2] 0 | encorafenib 0.006 | [3] -0.028 | alisertib -0.018 | [4] 0 | gefitinib 0.037

GLO1 (UniProt Q04760)
inactive: alvocidib 0.01 | Tubastatin A 0.059 | [1] -0.015 | defactinib -0.032 | [2] 0.034 | encorafenib -0.021 | [3] -0.078 | alisertib 0.013 | [4] -0.015 | gefitinib 0.007

GINS2 (UniProt Q9Y248)
inactive: alvocidib 0.044 | Tubastatin A 0.089 | [1] -0.007 | defactinib 0.095 | [2] 0.001 | encorafenib 0.114 | [3] 0.025 | alisertib 0.039 | [4] -0.027 | gefitinib -0.078

GLMP (UniProt Q8WWB7)
inactive: Tubastatin A -0.02 | [1] -0.093 | defactinib -0.13 | [2] -0.276 | encorafenib 0.122 | [3] -0.177 | alisertib 0.065 | gefitinib -0.039

GNB4 (UniProt Q9HAV0)
inactive: alvocidib -0.114 | Tubastatin A -0.002 | [1] -0.091 | [2] 0.01 | encorafenib -0.01 | [3] 0.141 | alisertib -0.168 | [4] 0.095
active: gefitinib -0.364

Copied from the listing (2 entries):
GNE isoform 2 (UniProt Q9Y223)
inactive: alvocidib 0.028 | Tubastatin A -0.12 | [1] 0.016 | defactinib -0.011 | [2] -0.024 | encorafenib -0.008 | [3] 0.176 | alisertib 0.041 | [4] 0.026 | gefitinib -0.014

GMPR2 isoform 2 (UniProt Q9P2T1)
inactive: alvocidib -0.003 | Tubastatin A 0.018 | [1] 0.023 | defactinib -0.017 | [2] -0.006 | encorafenib -0.002 | [3] -0.042 | alisertib 0.012 | [4] 0.008 | gefitinib 0.001

Next part:

GPATCH2L (UniProt Q9NWQ4)
inactive: Tubastatin A -0.127 | [2] 0.16 | encorafenib 0.007 | [3] 0.142
